Some of these results come from one statement about several compounds together.
Biological target: recombinant HuBraf V600E (Homo sapiens, UniProt P15056, V600E)
Experiment: B-raf Homogenous Time Resolved Fluorescent (HTRF) kinase assay
Format: biochemical
Conditions: substrate MEK1, 10 uM ATP; threshold lists; read-out: IC50 for the inhibition of B-raf as measured by the HTRF assay
Description: A Homogeneous Time Resolved Fluorescence (HTRF) kinase assay was established to assay the ability of compounds to inhibit human mutant Braf kinase activity on the substrate MEK1. […] The final concentration of the kinase reaction buffer is 50 mM Tris-HCL pH 7.5, 10 mM MgCl2, 0.5% glucose, 0.5 mM DTT, 0.01% BSA.
The detection reaction proceeds for one hour and is read on a RubyStar (BMG Labtech) counter. IC50s for the test compounds are generated using Excel-XLfit software.

Sequences of proteins named here, by UniProt entry; tags and fusion partners are left off.
UniProt P15056, whole entry V600E: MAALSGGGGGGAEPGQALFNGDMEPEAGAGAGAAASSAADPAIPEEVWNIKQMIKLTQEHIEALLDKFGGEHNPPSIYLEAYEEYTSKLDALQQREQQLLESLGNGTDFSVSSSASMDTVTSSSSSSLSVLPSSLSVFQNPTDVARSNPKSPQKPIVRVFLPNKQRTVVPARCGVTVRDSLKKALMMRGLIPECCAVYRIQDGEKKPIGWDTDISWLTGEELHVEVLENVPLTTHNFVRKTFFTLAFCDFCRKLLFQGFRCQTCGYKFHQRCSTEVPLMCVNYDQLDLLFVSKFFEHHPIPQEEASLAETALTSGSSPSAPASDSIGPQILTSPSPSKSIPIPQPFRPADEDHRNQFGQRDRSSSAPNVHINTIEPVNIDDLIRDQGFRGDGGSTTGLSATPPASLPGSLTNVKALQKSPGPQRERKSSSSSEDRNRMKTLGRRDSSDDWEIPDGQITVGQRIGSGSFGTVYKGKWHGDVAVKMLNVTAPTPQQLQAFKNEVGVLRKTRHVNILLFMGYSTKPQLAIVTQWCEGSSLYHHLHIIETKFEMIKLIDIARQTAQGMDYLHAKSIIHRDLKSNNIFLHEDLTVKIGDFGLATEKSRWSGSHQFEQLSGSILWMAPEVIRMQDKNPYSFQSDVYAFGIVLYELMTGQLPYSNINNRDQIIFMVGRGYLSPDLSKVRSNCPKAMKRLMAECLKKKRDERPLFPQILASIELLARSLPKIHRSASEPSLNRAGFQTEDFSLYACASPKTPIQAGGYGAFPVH

SMILES | IC50
CNc1ncc2cc(-c3c(C)ccc4c(Nc5cncc(C(F)(F)F)c5)ncnc34)ccc2n1 [Example 56, N^2,7′-dimethyl-N^4′-(5-(trifluoromethyl)-3-pyridinyl)-6,8′-biquinazoline-2,4′-diamine] | ≤ 5 µM
COc1ccc(Nc2nccc3c(Nc4ncccc4-c4ccncn4)c(C)ccc23)cc1C(F)(F)F [Example 19, 6-methyl-N^1-(4-(methyloxy)-3-(trifluoromethyl)phenyl)-N^5-(3-(4-pyrimidinyl)-2-pyridinyl)-1,5-isoquinolinediamine] | ≤ 5 µM
CNc1ncc2cc(-c3c(C)ccc4c(Nc5cccc(C(C)(C)O)c5)nncc34)ccc2n1 [Example 433, 2-(3-(6-methyl-5-(2-(methylamino)quinazolin-6-yl)phthalazin-1-ylamino)phenyl)propan-2-ol] | ≤ 5 µM
Cc1ccc(C(F)(F)F)cc1Nc1nccc2c(Nc3ncccc3-c3ncnc4[nH]ccc34)c(C)ccc12 [Example 346] | ≤ 5 µM
Cc1ccc2c(Nc3cc(C(C)(C)C)nn3C)nccc2c1Nc1ncccc1-c1ccncn1 [Example 15, N^1-(3-(1,1-dimethylethyl)-1-methyl-1H-pyrazol-5-yl)-6-methyl-N^5-(3-(4-pyrimidinyl)-2-pyridinyl)-1,5-isoquinolinediamine] | ≤ 5 µM
Cc1ccc2c(Nc3ccc4c(c3)NCC4(C)C)nccc2c1Nc1ncccc1-c1ccncn1 [Example 80, N^1-(3,3-dimethyl-2,3-dihydro-1H-indol-6-yl)-6-methyl-N^5-(3-(4-pyrimidinyl)-2-pyridinyl)-1,5-isoquinolinediamine] | ≤ 5 µM
CNc1ncc2cc(-c3c(C)ccc4c(Nc5ccc6c(c5)NC(=O)CC6(C)C)nnc(C)c34)ccc2n1 [Example 438] | ≤ 5 µM
CNc1ncc2cc(-c3c(C)ccc4c(Nc5cncc(C(F)(F)F)c5)nccc34)ccc2n1 [Example 41, N-methyl-6-(6-methyl-1-((5-(trifluoromethyl)-3-pyridinyl)amino)-5-isoquinolinyl)-2-quinazolinamine] | ≤ 5 µM
Cc1ccc2c(Nc3cccc(N(C)C)c3)nccc2c1Nc1ncccc1-c1ccncn1 [Example 11, N^1-(3-(dimethylamino)phenyl)-6-methyl-N^5-(3-(4-pyrimidinyl)-2-pyridinyl)-1,5-isoquinolinediamine] | ≤ 5 µM
CNc1cc(-c2cccnc2Nc2c(C)ccc3c(Nc4cccc(OC(F)(F)F)c4)ncnc23)ncn1 [Example 343] | ≤ 5 µM
CNc1ncc2cc(-c3c(C)ccc4c(Nc5ccc6[nH]ncc6c5)nccc34)ccc2n1 [Example 37, 6-(1-(1H-indazol-5-ylamino)-6-methyl-5-isoquinolinyl)-N-methyl-2-quinazolinamine] | ≤ 5 µM
CNc1ncc2cc(-c3c(C)ccc4c(Nc5ccc6sc(C)nc6c5)nccc34)ccc2n1 [Example 39, N-methyl-6-(6-methyl-1-((2-methyl-1,3-benzothiazol-5-yl)amino)-5-isoquinolinyl)-2-quinazolinamine] | ≤ 5 µM
Cc1ccc2c(Nc3ccccc3)nccc2c1Nc1ncccc1-c1ccncn1 [Example 9, 6-methyl-N^1-phenyl-N^5-(3-(4-pyrimidinyl)-2-pyridinyl)-1,5-isoquinolinediamine] | ≤ 5 µM
CNc1cc(-c2cccnc2Nc2c(C)ccc3c(Nc4ccc5c(c4)NCCC5(C)C)nccc23)ncn1 [Example 72, N^1-(4,4-dimethyl-1,2,3,4-tetrahydro-7-quinolinyl)-6-methyl-N^5-(3-(6-(methylamino)-4-pyrimidinyl)-2-pyridinyl)-1,5-isoquinolinediamine] | ≤ 5 µM
CNc1ncc2cc(-c3c(C)ccc4c(Nc5cccc(OC(F)(F)F)c5)nn(C)c34)ccc2n1 [Example 65, 6-(1,6-dimethyl-3-((3-((trifluoromethyl)oxy)phenyl)amino)-1H-indazol-7-yl)-N-methyl-2-quinazolinamine] | ≤ 5 µM
CNc1ncc2cc(-c3c(C)ccc4c(Nc5cccc(C(C)C)c5)nccc34)ccc2n1 [Example 26, N-methyl-6-(6-methyl-1-((3-(1-methylethyl)phenyl)amino)-5-isoquinolinyl)-2-quinazolinamine] | ≤ 5 µM
CNc1ncc2cc(-c3c(C)ccc4c(Nc5ccc6c(c5)CCC6)nccc34)ccc2n1 [Example 38, 6-(1-(2,3-dihydro-1H-inden-5-ylamino)-6-methyl-5-isoquinolinyl)-N-methyl-2-quinazolinamine] | ≤ 5 µM
Cc1ccc2c(Nc3cccc(OC(C)C)c3)nccc2c1Nc1ncccc1-c1ccncn1 [Example 13, 6-methyl-N^1-(3-((1-methylethyl)oxy)phenyl)-N^5-(3-(4-pyrimidinyl)-2-pyridinyl)-1,5-isoquinolinediamine] | ≤ 5 µM
CNc1cc(-c2cccnc2Nc2c(C)ccc3c(Nc4cc(C(F)(F)F)ccc4C)nccc23)ncn1 [Example 349] | ≤ 5 µM
CNc1cc(-c2cccnc2Nc2c(C)ccc3c(Nc4ccc(OC)c(C(F)(F)F)c4)nccc23)ncn1 [Example 70, N^1-(4-methoxy-3-(trifluoromethyl)phenyl)-6-methyl-N^5-(3-(6-(methylamino)pyrimidin-4-yl)pyridin-2-yl)isoquinoline-1,5-diamine] | ≤ 5 µM
CNc1ncc2cc(-c3c(C)ccc4c(Nc5ccc6c(c5)NCC6(C)C)ncnc34)ccc2n1 [Example 81, N^4′-(3,3-dimethyl-2,3-dihydro-1H-indol-6-yl)-N^2,7′-dimethyl-6,8′-biquinazoline-2,4′-diamine] | ≤ 5 µM
CNc1ncc2cc(-c3c(C)ccc4c(Nc5ccc6c(c5)N(C(C)=O)CC6(C)C)nccc34)ccc2n1 [Example 33, 6-(1-((1-acetyl-3,3-dimethyl-2,3-dihydro-1H-indol-6-yl)amino)-6-methyl-5-isoquinolinyl)-N-methyl-2-quinazolinamine] | ≤ 5 µM
CNc1ncc2cc(-c3c(C)ccc4c(Nc5cccc(C(F)(F)F)c5)nccc34)c(=O)n(C)c2n1 [Example 354, 8-methyl-6-(6-methyl-1-(3-(trifluoromethyl)phenylamino)isoquinolin-5-yl)-2-(methylamino)pyrido[2,3-d]pyrimidin-7(8H)-one] | ≤ 5 µM
CNc1nccc(-c2cccnc2Oc2c(C)ccc3c(Nc4cccc(OC(F)(F)F)c4)nccc23)n1 [Example 413, 6-methyl-5-(3-(2-(methylamino)pyrimidin-4-yl)pyridin-2-yloxy)-N-(3-(trifluoromethoxy)phenyl)isoquinolin-1-amine] | ≤ 5 µM
CNc1ncc2cc(-c3c(C)ccc4c(Nc5cccc(OC(F)(F)F)c5)nccc34)ccc2n1 [Example 32, N-methyl-6-(6-methyl-1-((3-((trifluoromethyl)oxy)phenyl)amino)-5-isoquinolinyl)-2-quinazolinamine] | ≤ 5 µM
CNc1ncc2cc(-c3c(C)sc4c(Nc5ccc(OC)c(C(F)(F)F)c5)nccc34)ccc2n1 [Example 392, 6-(7-(4-methoxy-3-(trifluoromethyl)phenylamino)-2-methylthieno[2,3-c]pyridin-3-yl)-N-methylquinazolin-2-amine] | ≤ 5 µM
CNc1ncc2cc(-c3c(C)ccc4c(Nc5cccc(C#N)c5)nccc34)ccc2n1 [Example 30, 3-((6-methyl-5-(2-(methylamino)-6-quinazolinyl)-1-isoquinolinyl)amino)benzonitrile] | ≤ 5 µM
CNc1ncc2cc(-c3c(C)ccc4c(Nc5ccc(OC)c(C(F)(F)F)c5)ncnc34)ccc2n1 [Example 52, N^2,7′-dimethyl-N^4′-(4-(methyloxy)-3-(trifluoromethyl)phenyl)-6,8′-biquinazoline-2,4′-diamine] | ≤ 5 µM

Reference: US8440674B2, “Substituted pyrimidine compounds as RAF inhibitors and methods of use” (Amgen Inc., priority 2005, dated 2013)
